Measured values published in PubChem BioAssay AID256 (DTP/NCI, 2004).
The list shows only some results of the screen, not a fair sample: it gathers tests that were run many times, whatever their T/C, doses with no T/C, and many T/C values between a quarter and a half above the control. Further doses and runs are listed elsewhere. T/C: endpoint of the treated group in % of that of the vehicle group. Some entries give survivors of the animals treated and no T/C: the source files T/C as zero there, which appears to mark a toxic dose or a test without result, not a measured value. Some doses without a T/C left all or most animals alive at the check, yet need not have been tolerated: survival well below the control is almost never listed, so the zero probably covers shortened survival too. Counts of survivors are from the toxicity check (mostly the fifth day) where no day follows; animals may have died later. Schedule codes are those of the source, taken here to give the interval after Q, in days (D) or hours (H), and the number of doses after X. Some doses were run more than once; the results are listed from low to high. Where survival is the endpoint, this PubChem deposit counts one and a half times the control or more as active, and values a quarter to a half above the control carry no call in these data; other NCI protocols may use other cut-offs. Some T/C values are followed by the survivors on the day toxicity was checked, most often the fifth; where none is given, no animal had died by that day. Brackets with × count equal records among those shown.

System: CD2F1 mice, L1210 leukemia ip, survival T/C
Assay: NCI In Vivo Anticancer Drug Screen. Data for tumor model L1210 Leukemia (intraperitoneal) in CD2F1 (CDF1) mice
Settings: higher T/C = longer survival
Outline: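 Implant tumor; dose compound or vehicle; measure endpoint in both groups; report treated divided by control.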

[1] = T/C endpoint: mean survival time, dose: 400.0 mg/kg/injection, schedule: Q01DX009 (ip), vehicle: saline with Tween-80
[2] = T/C endpoint: mean survival time, dose: 50.0 mg/kg/injection, schedule: Q01DX009 (ip), vehicle: saline with Tween-80
[3] = T/C endpoint: mean survival time, dose: 25.0 mg/kg/injection, schedule: Q01DX009 (ip), vehicle: saline with Tween-80
[4] = T/C endpoint: mean survival time, dose: 100.0 mg/kg/injection, schedule: Q01DX009 (ip), vehicle: saline with Tween-80
[5] = T/C endpoint: mean survival time, dose: 200.0 mg/kg/injection, schedule: Q01DX009 (ip), vehicle: saline with Tween-80
[6] = T/C endpoint: mean survival time, dose: 25.0 mg/kg/injection, schedule: Q01DX009 (ip), vehicle: Klucel (hydroxypropylcellulose) (HPC)
[7] = T/C endpoint: mean survival time, dose: 200.0 mg/kg/injection, schedule: Q04DX002 (ip), vehicle: saline with Tween-80
[8] = T/C endpoint: mean survival time, dose: 100.0 mg/kg/injection, schedule: Q04DX003 (ip), vehicle: saline with Tween-80
[9] = T/C endpoint: mean survival time, dose: 200.0 mg/kg/injection, schedule: Q04DX003 (ip), vehicle: saline with Tween-80
[10] = T/C endpoint: mean survival time, dose: 400.0 mg/kg/injection, schedule: Q04DX003 (ip), vehicle: saline with Tween-80
[11] = T/C endpoint: mean survival time, dose: 20.0 mg/kg/injection, schedule: Q01DX009 (ip), vehicle: Klucel (hydroxypropylcellulose) (HPC)

Compound: Cc1ccccc1CS
- survivor count [1]: 0 of 6

Compound: c1ccc([Si]2(c3ccccc3)c3ccccc3-c3ccccc32)cc1
- survivor count [1]: 6 of 6

Compound: COc1cc(OC)c(NC(=O)Oc2ccc(SC)cc2)cc1Cl
- survivor count [2]: 3 of 3

Compound: COc1ccc(OC)c(/C=C(/C#N)C(N)=O)c1
- survivor count (T/C endpoint: mean survival time, dose: 100.0 mg/kg/injection, schedule: Q01DX001 (ip), vehicle: saline with Tween-80): 6 of 6

Compound: CCOc1ccc(NC(=S)NC(=O)/C=C/c2ccccc2)cc1
- T/C [3]: 93, 102, 103, 107 % of control
- T/C [2]: 93, 96, 96 [5 of 6 alive], 97 (2×), 98 % of control
- T/C [4]: 101, 104, 105, 108, 109 [5 of 6 alive], 110 % of control
- T/C [5]: 86, 94, 97 [5 of 6 alive], 106 % of control

Compound: C(#CC[P+](c1ccccc1)(c1ccccc1)c1ccccc1)C[P+](c1ccccc1)(c1ccccc1)c1ccccc1
- survivor count [6]: 0 of 6
- survivor count (T/C endpoint: mean survival time, dose: 50.0 mg/kg/injection, schedule: Q01DX009 (ip), vehicle: Klucel (hydroxypropylcellulose) (HPC)): 0 of 6

Compound: C=C(C)C(=O)OCCN(C)C (tested in a mixture with another compound)
- survivor count [1]: 3 of 6

Compound: COc1ccc(N/C=C/C2=[N+](C)c3ccccc3C2(C)C)c(OC)c1
- survivor count (T/C endpoint: mean survival time, dose: 400.0 mg/kg/injection, schedule: Q04DX003 (ip), vehicle: saline): 0 of 6

Compound: OCCSc1c(Cl)c(Cl)c(Cl)c(Cl)c1Cl
- survivor count (T/C endpoint: mean survival time, dose: 100.0 mg/kg/injection, schedule: Q04DX002 (ip), vehicle: saline with Tween-80): 3 of 3
- survivor count [7]: 3 of 3

Compound: C/C=C\C1OC1(C)c1cc(=O)c2c(C)cc3c(c2o1)C(=O)c1c(O)c(C2CC(C)(N(C)C)C(OC(C)=O)C(C)O2)cc(C2CC(N(C)C)C(O)C(C)O2)c1C3=O (stereo unspecified)
- T/C (T/C endpoint: mean survival time, dose: 0.7 mg/kg/injection, schedule: Q04DX003 (ip), vehicle: saline with Tween-80): 127 % of control
- T/C (T/C endpoint: mean survival time, dose: 1.4 mg/kg/injection, schedule: Q04DX003 (ip), vehicle: saline with Tween-80): 134 % of control
- T/C (T/C endpoint: mean survival time, dose: 2.8 mg/kg/injection, schedule: Q04DX003 (ip), vehicle: saline with Tween-80): 127 % of control
- T/C (T/C endpoint: median survival time, dose: 0.5 mg/kg/injection, schedule: Q01DX005 (ip), vehicle: saline + alcohol): 127 % of control
- T/C (T/C endpoint: median survival time, dose: 0.6 mg/kg/injection, schedule: Q01DX005 (ip), vehicle: saline + alcohol): 129 % of control
- T/C (T/C endpoint: median survival time, dose: 1.0 mg/kg/injection, schedule: Q01DX005 (ip), vehicle: saline + alcohol): 131 % of control
- T/C (T/C endpoint: median survival time, dose: 1.67 mg/kg/injection, schedule: Q01DX005 (ip), vehicle: saline + alcohol): 139 % of control
- T/C (T/C endpoint: median survival time, dose: 2.0 mg/kg/injection, schedule: Q01DX005 (ip), vehicle: saline + alcohol): 127 % of control
- T/C (T/C endpoint: median survival time, dose: 4.0 mg/kg/injection, schedule: Q01DX005 (ip), vehicle: saline + alcohol): 127 % of control [5 of 6 alive]
- T/C (T/C endpoint: median survival time, dose: 4.63 mg/kg/injection, schedule: Q01DX005 (ip), vehicle: saline + alcohol): 143 % of control [5 of 6 alive]

Compound: CCCCOP(=O)(N=C=S)OCCCC
- survivor count [7]: 1 of 3
- survivor count (T/C endpoint: mean survival time, dose: 400.0 mg/kg/injection, schedule: Q04DX002 (ip), vehicle: saline with Tween-80): 0 of 3

Compound: O=C(COc1cccc(Cl)c1)Nc1ccc(CN2C(=O)c3ccccc3C2=O)cc1
- survivor count (T/C endpoint: mean survival time, dose: 25.0 mg/kg/injection, schedule: Q01DX001 (ip), vehicle: Klucel (hydroxypropylcellulose) (HPC)): 3 of 3
- survivor count (T/C endpoint: mean survival time, dose: 50.0 mg/kg/injection, schedule: Q01DX001 (ip), vehicle: Klucel (hydroxypropylcellulose) (HPC)): 3 of 3
- survivor count (T/C endpoint: mean survival time, dose: 100.0 mg/kg/injection, schedule: Q01DX001 (ip), vehicle: Klucel (hydroxypropylcellulose) (HPC)): 3 of 3

Compound: c1ccc(C2CC2NC2=NCCO2)cc1 (stereo unspecified)
- survivor count [8]: 4 of 6
- survivor count [9]: 0 of 6
- survivor count [10]: 0 of 6

Compound: CCCCOCCSc1ccccc1
- survivor count (T/C endpoint: mean survival time, dose: 400.0 mg/kg/injection, schedule: Q01DX001 (ip), vehicle: saline): 0 of 6

Compound: COc1cc(/C=N/NC(=O)CN(C)C)cc(OC)c1N(CCCl)CCCl
- T/C [6]: 125 % of control

Compound: c1ccc2[nH]c(CN(CCN(Cc3nc4ccccc4[nH]3)Cc3nc4ccccc4[nH]3)Cc3nc4ccccc4[nH]3)nc2c1
- survivor count (T/C endpoint: median survival time, dose: 12.5 mg/kg/injection, schedule: Q01DX005 (ip), vehicle: DMSO): 4 of 6
- survivor count (T/C endpoint: median survival time, dose: 25.0 mg/kg/injection, schedule: Q01DX005 (ip), vehicle: DMSO): 1 of 6
- survivor count (T/C endpoint: median survival time, dose: 50.0 mg/kg/injection, schedule: Q01DX005 (ip), vehicle: DMSO): 0 of 6

Compound: O=C(Cc1ccccc1)C(Br)C(Br)c1ccccc1 (stereo unspecified)
- survivor count [2]: 2 of 6
- survivor count [4]: 3 of 6
- survivor count [9]: 4 of 6
- survivor count [10]: 0 of 6

Compound: NC(CS(=O)c1ccc([N+](=O)[O-])cc1Cl)C(=O)O (stereo unspecified)
- survivor count [5]: 3 of 6
- survivor count [1]: 0 of 6

Compound: COC(=O)c1ccc[n+](CCc2c[nH]c3ccccc23)c1
- survivor count [4]: 6 of 6
- survivor count [5]: 1 of 6
- survivor count (T/C endpoint: mean survival time, dose: 400.0 mg/kg/injection, schedule: Q01DX001 (ip), vehicle: saline with Tween-80): 0 of 6

Compound: CS(=O)(=O)OCCN(CCOS(C)(=O)=O)c1ccc(C=O)cc1
- T/C (T/C endpoint: mean survival time, dose: 3.12 mg/kg/injection, schedule: Q01DX009 (ip), vehicle: saline): 139 % of control
- T/C (T/C endpoint: mean survival time, dose: 6.25 mg/kg/injection, schedule: Q01DX009 (ip), vehicle: saline): 135 % of control
- T/C (T/C endpoint: mean survival time, dose: 12.5 mg/kg/injection, schedule: Q01DX009 (ip), vehicle: saline with Tween-80): 125 % of control
- T/C [3]: 130 % of control
- survivor count (T/C endpoint: mean survival time, dose: 50.0 mg/kg/injection, schedule: Q01DX009 (ip), vehicle: saline): 5 of 6
- survivor count [4]: 3 of 6 and 5 of 6
- survivor count (T/C endpoint: mean survival time, dose: 100.0 mg/kg/injection, schedule: Q01DX009 (ip), vehicle: saline): 4 of 6

Compound: c1ccc2c(c1)sc1[n+]2CCS1
- survivor count (T/C endpoint: mean survival time, dose: 150.0 mg/kg/injection, schedule: Q01DX001 (ip), vehicle: saline): 0 of 6
- survivor count (T/C endpoint: mean survival time, dose: 300.0 mg/kg/injection, schedule: Q01DX001 (ip), vehicle: saline): 0 of 6

Compound: O=C(O)c1ccc(CBr)cc1CBr
- survivor count [8]: 2 of 6
- survivor count [9]: 0 of 6
- survivor count [10]: 0 of 6

Compound: C=C(CC(=O)OC)C(=O)O
- survivor count (T/C endpoint: mean survival time, dose: 100.0 mg/kg/injection, schedule: Q01DX009 (ip), vehicle: saline sonified): 3 of 6
- survivor count (T/C endpoint: mean survival time, dose: 200.0 mg/kg/injection, schedule: Q01DX009 (ip), vehicle: saline sonified): 2 of 6
- survivor count (T/C endpoint: mean survival time, dose: 400.0 mg/kg/injection, schedule: Q01DX009 (ip), vehicle: saline sonified): 0 of 6

Compound: CN(C)N=Nc1ccc(S(N)(=O)=O)cc1
- T/C (T/C endpoint: mean survival time, dose: 75.0 mg/kg/injection, schedule: Q01DX009 (ip), vehicle: Klucel (hydroxypropylcellulose) (HPC)): 140 % of control
- survivor count (T/C endpoint: mean survival time, dose: 300.0 mg/kg/injection, schedule: Q01DX009 (ip), vehicle: Klucel (hydroxypropylcellulose) (HPC)): 5 of 6

Compound: C[N+](C)(C)c1ncnc2c1ncn2C1CCCO1 (stereo unspecified)
- survivor count (T/C endpoint: mean survival time, dose: 200.0 mg/kg/injection, schedule: Q01DX009 (ip), vehicle: saline): 0 of 6
- survivor count (T/C endpoint: mean survival time, dose: 400.0 mg/kg/injection, schedule: Q01DX009 (ip), vehicle: saline): 0 of 6

Compound: c1ccc2c(NCCCCCCNc3c4ccccc4nc4ccccc34)c3ccccc3nc2c1
- T/C (T/C endpoint: mean survival time, dose: 2.5 mg/kg/injection, schedule: Q01DX009 (ip), vehicle: Klucel (hydroxypropylcellulose) (HPC)): 126 % of control [9 of 10 alive]
- T/C (T/C endpoint: mean survival time, dose: 5.0 mg/kg/injection, schedule: Q01DX009 (ip), vehicle: Klucel (hydroxypropylcellulose) (HPC)): 128 % of control
- T/C (T/C endpoint: mean survival time, dose: 10.0 mg/kg/injection, schedule: Q01DX009 (ip), vehicle: Klucel (hydroxypropylcellulose) (HPC)): 129 and 143 % of control [8 of 10 alive]
- T/C [11]: 125 % of control
- survivor count [11]: 4 of 10
- survivor count (T/C endpoint: mean survival time, dose: 40.0 mg/kg/injection, schedule: Q01DX009 (ip), vehicle: Klucel (hydroxypropylcellulose) (HPC)): 0 of 10 and 4 of 6
